PubChem BioAssay AID1259424 – University of Nebraska Medical Center | 2018
The deposit covers about 14,000 reagents; below is a part drawn at random. 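Higher correlation or smaller distance means closer resemblance to KSR1 loss; control wells, including KSR1 knockdowns, recur on many plates.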 The record does not give: the time to read-out.

- Purpose: 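Find knockdowns that reproduce the expression shifts seen after KSR1 loss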 (primary screen)
- System: human HCT116 colon cancer cells
- Reagent: siRNA pool against human genes, 50 nM
- Detection: 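Log2 levels of six mRNAs (branched-DNA multiplex), adjusted by two reference genes and the non-targeting median, then scored against the average KSR1 knockdown pattern as Pearson r and euclidean distance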
- Reading the numbers: mean correlation with KSR1 profile and KSR1 correlation: higher = expression change more like KSR1 knockdown; mean distance from KSR1 profile: higher = expression change less like KSR1 knockdown

Gene | mean correlation with KSR1 profile | mean distance from KSR1 profile | KSR1 correlation, replicate 1 | KSR1 correlation, replicate 2 | KSR1 correlation, replicate 3
ZNF442 (GeneID 79973) | 0.28 | 2.48 | 0.2 | 0.393 | 0.506
INSAF (retired record) (GeneID 3637) | -0.343 | 2.46 | -0.419 | -0.5 | -0.366
LDB1 (GeneID 8861) | 0.0995 | 1.9 | 0.334 | 0.188 | -0.000562
ZFP91 (GeneID 80829) | 0.504 | 1.76 | 0.414 | 0.488 | 0.541
OPN3 (GeneID 23596) | 0.261 | 1.72 | 0.435 | 0.242 | 0.25
GPR6 (GeneID 2830) | 0.885 | 2.91 | 0.836 | 0.838 | 0.794
PLEKHH1 (GeneID 57475) | -0.753 | 3.98 | -0.575 | -0.655 | -0.59
KHSRP (GeneID 8570) | -0.527 | 3.16 | -0.532 | 0.235 | -0.803
BBX (GeneID 56987) | -0.351 | 2.1 | -0.565 | -0.00429 | 0.0227
TBC1D1 (GeneID 23216) | -0.00711 | 1.65 | -0.129 | 0.00358 | 0.156
KIF27 (GeneID 55582) | -0.33 | 3.07 | -0.301 | -0.423 | -0.372
WDPCP (GeneID 51057) | -0.412 | 2.33 | -0.39 | -0.417 | -0.388
ISCA1 (GeneID 81689) | -0.194 | 2.24 | -0.538 | -0.196 | -0.262
WNT8A (GeneID 7478) | 0.321 | 2.67 | 0.574 | 0.193 | -0.128
NRXN1 (GeneID 9378) | -0.652 | 2.02 | -0.661 | -0.172 | -0.604
LAT2 (GeneID 7462) | -0.456 | 4.01 | -0.326 | -0.55 | -0.476
ADAM18 (GeneID 8749) | -0.118 | 2.78 | -0.15 | 0.0508 | 0.0057
VNN3P (GeneID 55350) | -0.789 | 2.74 | -0.672 | -0.884 | -0.684
GID8 (GeneID 54994) | -0.186 | 1.16 | -0.432 | -0.117 | -0.261
HSPA13 (GeneID 6782) | -0.00338 | 1.91 | 0.4 | 0.085 | -0.375
TMBIM6 (GeneID 7009) | -0.669 | 3.12 | -0.636 | -0.565 | -0.788
MTOR (GeneID 2475) | 0.645 | 2.04 | 0.788 | 0.451 | 0.359
PEG3 (GeneID 5178) | -0.295 | 2.75 | -0.141 | -0.286 | -0.278
GSTM4 (GeneID 2948) | -0.0853 | 3.65 | -0.22 | -0.113 | -0.125
WBSCR23 (GeneID 107986810) | 0.657 | 1.24 | 0.698 | 0.539 | 0.634
CSPP1 (GeneID 79848) | 0.202 | 1.77 | 0.221 | 0.211 | 0.265
NR2C2 (GeneID 7182) | -0.763 | 3.72 | -0.748 | -0.689 | -0.942
STX17 (GeneID 55014) | 0.152 | 1.92 | 0.2 | -0.137 | 0.232
E2F5 (GeneID 1875) | -0.228 | 1.63 | -0.305 | -0.237 | -0.413
CSF1 (GeneID 1435) | 0.502 | 1.1 | 0.572 | 0.385 | 0.489
ZBTB6 (GeneID 10773) | -0.251 | 3.43 | 0.251 | -0.137 | -0.48
PDHA2 (GeneID 5161) | 0.526 | 1.97 | 0.465 | 0.561 | 0.488
ELF5 (GeneID 2001) | 0.56 | 2.08 | 0.514 | 0.523 | 0.566

Looked up above.
PDHA2 (GeneID 5161), KSR1 correlation, replicate 2 → 0.561
For “KSR1 correlation, replicate 1”, E2F5 (GeneID 1875) has -0.305
Value of PEG3 (GeneID 5178) under “mean correlation with KSR1 profile”: -0.295

Additional entries follow:
Gene | mean correlation with KSR1 profile | mean distance from KSR1 profile | KSR1 correlation, replicate 1 | KSR1 correlation, replicate 2 | KSR1 correlation, replicate 3
ANGPTL1 (GeneID 9068) | -0.808 | 1.94 | -0.599 | -0.77 | -0.871
WNT10B (GeneID 7480) | -0.346 | 2.57 | -0.325 | -0.528 | -0.282
QPCT (GeneID 25797) | -0.764 | 2.2 | -0.806 | -0.712 | -0.633
NR1D2 (GeneID 9975) | 0.534 | 1.26 | 0.642 | 0.415 | 0.436
NOAZFP (GeneID 27309) | 0.0948 | 2.39 | 0.0584 | -0.22 | -0.234
NSMAF (GeneID 8439) | -0.485 | 1.42 | -0.663 | -0.264 | -0.445
SLA2 (GeneID 84174) | 0.0827 | 2.58 | -0.0113 | -0.0567 | 0.235
MID1IP1 (GeneID 58526) | -0.482 | 3 | -0.658 | -0.482 | -0.277
RYBP (GeneID 23429) | -0.738 | 2.03 | -0.78 | -0.857 | -0.436
WBP1 (GeneID 23559) | -0.345 | 3.96 | 0.092 | -0.699 | -0.569
RPL7A (GeneID 6130) | 0.712 | 2.44 | 0.77 | 0.761 | 0.467
TRIM35 (GeneID 23087) | -0.061 | 1.21 | -0.331 | -0.0362 | 0.188
AKAP3 (GeneID 10566) | 0.409 | 2.42 | 0.551 | 0.432 | -0.0787
AP3M2 (GeneID 10947) | -0.602 | 3.62 | -0.435 | -0.704 | -0.459
COX4I2 (GeneID 84701) | 0.0336 | 2.38 | 0.0758 | -0.294 | -0.128
NAP1L3 (GeneID 4675) | 0.269 | 1.22 | 0.434 | 0.268 | 0.262
UBE2B (GeneID 7320) | -0.00319 | 1.4 | -0.0186 | -0.0908 | 0.037
